Data: article PMC11975959

Legend:
Assay in all cases: pull-down; GST-BTWC-2 bait proteins bound to GST magnetic beads, co-incubated with His-BTWC-1 proteins; washed, eluted, SDS-PAGE and Western blot with anti-GST and anti-His antibodies; both purified
[1] = target: GST-BTWC-2A (Blakeslea trispora)
[2] = target: GST-BTWC-2B (Blakeslea trispora)
[3] = target: GST-BTWC-2C (Blakeslea trispora)
[4] = target: GST-BTWC-2D (Blakeslea trispora)

Row | binding [1] | binding [2] | binding [3] | binding [4] | Binder
1 | no binding | no binding | no binding | no binding | His-BTWC-1A (protein, UniProt A0A3G1Z161 1-657) MSQQYQQQQHPALAYASATPLNIPGLTQPIRNDQQLQEMPTIDLRPMESTPTNISEAPLTGVYSSSGFDMIGVHSRLVNRPNPQINLGPIDMSCSFLVTDARQYDCPIVYCSPTFEHLTGYVATEIVGRNCRFLQAPDGQVTVGSRRTYTDNQAVYHLKAQMLQNKEHQASIINYRKGGQPFVNLITVIPITDDDGIVTFFVGLQVDLVEQPNAILEKMKNGTYMVNYQQMNIPPYIPGKNFNSEPVDDYFREVPSALPTHSSSALVSPPSAQASSEILSLVNCSGENEQQLQQEWNRLLLDQSEDFIHVLSLKGFFLYCSRSSSHLLEHDPEELVGHPLSSICHPSDIVPVMREIKEAASETGKVINLIFRVRRKYSGYMWMECQGKIHIDQSKGRKCLIMAGRERPMYQLFHKEIVDAQDIAQGSEFWTKASLNGLFLHVTSTSEEVVGFSADALEGATLYQYVGDEHMRDITRALELVRDGQIVNLHHTLQNNKGDYVSVLSTFYPGDTSFGKGRPSFTLVQIRAKETNDKTHSMDVIDSSASTTGETDYEENMFAELETVRGTSWQYELHQLQLANRKLKEQLEHYSNPKRKKQKKKSLGLADVPKICAQCQSTDSPEWRKGPNGPKELCNACGLRYAKSLSLKKAENSSVTV
2 | binds |  |  |  | His-BTWC-1C (protein, UniProt A0A6G6CHV8 1-670) MNNSSASYLPNFSDNSYLPYSNEDADFNRIPHNSNTLNELPPNNRPASPTSNALAGVYSNTGFDMIQILSKLIHRPNPQIQLGPIDLSCSFVVSDARGYDCPVVYSSPAFERLTGYKNEEIIGKNCRFLQSPDGQVTCGSRRQHTDNQAVYHLKAQLNLGKEHQASIINYRKGGQPFVNLVTVVPTFGDDGQVDYFVGLQVDLVEQPNSILEKMKDGTYLINYHQPMSVPRTIPQRNNKLLLDSSSVMDEYFRELPTNNYHSNSNTSSTKSQPEHNSVVQNADIIGLLDPSQIDFESLSSLNGNNNEQQLLKEWNKVLLDQSCDFVHVLSLKGVFLYASQASKHMLEYEPKELVGNLLSSICHPSDIIPVMREIKETTTNPEKAINLLFRIRRKDSGYIWIDCRGKLHMDQSKGRKCLVLSGRERSVYSLMSHQITPSLSNTIESDLEYWAKLSLAGLYLYVTPTCKEVVGFTSDSLEQESIYQYAENNAITDITKALEIVKDGGIVRVPHTILNAKGTYVRVLSTFYPGDAIYSSGKPSFALLQVKAIPFDQNQDSLPLGIEPDVKNLNEAEGENIFAELSTFRSTNWQYELHQLQQSNKRLREQLDKYINPNKQRRKKKSKSSDLPKMCAKCQRKDSPEWRKGPNGPKELCNACGLRYAKSLSAQGKK
3 | no binding | no binding | no binding | no binding | His-BTWC-1B (protein, UniProt A0A6G6CI19 1-732) MDPFQSFPVQFNPQIYESSNVPPSTNRLFSISGFQAGLMTNTQQINNTPRSISQAPSQRFLPPTSPTMNSQIENGSRYSGMYANTGFDMLSLLSRVVNRPNQQIDLGPVDLSCSFVVVDAKQYDFPIVYVSPSFERLTDYAPHEVIGRNCRFLQAPDGRVAIGSRRKYTDNSTVYHIKTHMVQGKESQSSIINYRKTGQPFVNLLTVIPISWESSDEIDYFVGLQVDLVEQPNSIFQSMKDGTYSVNYRNSAIPPSISSMQMNPEFSGEAVEVWKRPSSPKQMMGSSSTTTSAIPTNTNNNDTMQIGLSIEKETTNNHHPGHRSSDPDPSMDVETLIKEASTDEGKYRRCWHELLLDQSPDFIHVLTIKGIFLYCSDSTQQVLEYDPSELIGKSLKDICHPSDITTVMRELKQSSSDSAEPVNLIYRVRRKNSGYMWIESCGKLRNEDGRGRKYVVLSGRERPVYQLPRNALTVGNRAHDMRTPAETLMPGTEDHEFWGKLSTDGLLLYASWTCANILGSPPSDIVGTSLYHRMRSNRTTDLTRALAEVKEGKIVYLRHALVNNADLEVMVATTFYPDGRVSLEDPPSFVLMQTKVIDDESTLTDDEPVFVSMDPDVKKKGRADISLSTTGSTTSLRSNTERMIDELDITRDANWQYELHQLRISNKKLRDDLAILLQRAKQEGNEEVAHCHSCYRRLPGTSELSEFSMDEPLLCNTCSLRELPNTLATQQS

No constants are given. Whether binding was seen depends on the method and setting. For part of these data: Binding can be weak; no strength is given. Tags and fused reporters may be left off the sequences shown.
